Source: paper PMC6424098

Sequences of proteins named here, by UniProt entry; tags and fusion partners are left off. A change or cut given only in a name is not applied to a line headed by its entry.
UniProt Q05826: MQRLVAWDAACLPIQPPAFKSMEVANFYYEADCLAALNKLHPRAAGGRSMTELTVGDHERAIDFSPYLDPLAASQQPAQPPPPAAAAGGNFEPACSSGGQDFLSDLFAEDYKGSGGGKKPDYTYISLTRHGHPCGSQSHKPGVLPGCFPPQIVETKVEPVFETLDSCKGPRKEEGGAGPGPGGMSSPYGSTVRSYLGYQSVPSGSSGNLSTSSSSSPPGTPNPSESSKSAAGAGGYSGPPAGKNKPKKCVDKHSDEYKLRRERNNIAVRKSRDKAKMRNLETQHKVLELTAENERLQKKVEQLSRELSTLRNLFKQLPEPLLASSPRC
UniProt Q92830: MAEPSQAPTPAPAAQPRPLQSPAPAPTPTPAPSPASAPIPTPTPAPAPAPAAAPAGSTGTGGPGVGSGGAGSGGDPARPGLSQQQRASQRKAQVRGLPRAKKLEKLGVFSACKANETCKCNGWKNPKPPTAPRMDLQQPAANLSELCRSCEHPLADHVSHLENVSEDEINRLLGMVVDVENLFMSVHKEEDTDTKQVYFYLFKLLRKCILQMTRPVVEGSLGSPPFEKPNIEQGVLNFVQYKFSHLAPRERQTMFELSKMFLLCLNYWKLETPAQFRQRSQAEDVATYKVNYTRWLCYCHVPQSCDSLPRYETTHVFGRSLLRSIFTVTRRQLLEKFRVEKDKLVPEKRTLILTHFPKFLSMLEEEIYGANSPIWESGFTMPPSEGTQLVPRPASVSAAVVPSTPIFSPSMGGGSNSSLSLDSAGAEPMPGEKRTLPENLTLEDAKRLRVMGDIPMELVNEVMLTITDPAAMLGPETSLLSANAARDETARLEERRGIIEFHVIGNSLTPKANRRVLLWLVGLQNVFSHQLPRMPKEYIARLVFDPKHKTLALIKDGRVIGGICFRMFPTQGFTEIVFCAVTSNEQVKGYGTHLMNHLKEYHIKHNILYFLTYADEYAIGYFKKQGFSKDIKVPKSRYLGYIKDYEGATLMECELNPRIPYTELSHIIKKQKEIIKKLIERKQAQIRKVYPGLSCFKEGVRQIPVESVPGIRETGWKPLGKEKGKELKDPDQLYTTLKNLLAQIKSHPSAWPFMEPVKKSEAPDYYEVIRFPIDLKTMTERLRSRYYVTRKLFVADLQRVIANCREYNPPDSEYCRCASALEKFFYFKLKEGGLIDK

Molecular target: C/EBPβ LAP*Δ7, FLAG-tagged (UniProt Q05826)
Assay: co-IP; FLAG-tagged C/EBPβ constructs expressed in HEK293 (HEK293T) cells and immunoprecipitated; endogenous partners detected by immunoblotting (Figures 4C, 4D, 5B, 6B right)

- binding: no binding
Substance: histone acetyltransferase GCN5 of the SAGA complex (from UniProt Q92830 1-837)

Results are given in words; binding and its absence hold for the method and conditions named. In cells and extracts the contact can be indirect.
